Laboratory results: publication PMC13040627
Results are given in words; binding and its absence hold for the method and conditions named.

Columns and labels:
[1] = molecular target: recombinant Fel d 4 produced in E. coli (E_rFel d 4) (cat (Felis domesticus)) (UniProt Q5VFH6); assay: SEC; analytical size-exclusion chromatography recorded at 280 nm, superimposed to a gel filtration standard; both purified
[2] = molecular target: recombinant Fel d 4 produced in Expi293F mammalian cells (M_rFel d 4) (cat (Felis domesticus)) (UniProt Q5VFH6); assay: as above

binding [1]	binding [2]	Binder
no binding	–	recombinant Fel d 4 produced in E. coli (E_rFel d 4) (protein, UniProt Q5VFH6 16-186, N-formylmethionine (from the intact mass of the hexa-histidine tagged protein)) HEEENVVRSNIDISKISGEWYSILLASDVKEKIEENGSMRVFVEHIKALDNSSLSFVFHTKENGKCTEIFLVADKTKDGVYTVVYDGYNVFSIVETVYDEYILLHLLNFDKTRPFQLVEFYAREPDVSQKLKEKFVKYCQEHGIVNILDLTEVDRCLQARGSEVAQDSSVE
–	no binding	recombinant Fel d 4 produced in Expi293F mammalian cells (M_rFel d 4) (protein, UniProt Q5VFH6 16-186, N-glycan at N51 (at least 7 glycoforms)) HEEENVVRSNIDISKISGEWYSILLASDVKEKIEENGSMRVFVEHIKALDNSSLSFVFHTKENGKCTEIFLVADKTKDGVYTVVYDGYNVFSIVETVYDEYILLHLLNFDKTRPFQLVEFYAREPDVSQKLKEKFVKYCQEHGIVNILDLTEVDRCLQARGSEVAQDSSVE
